Some entries repeat one wording, which the source may state once for all of them.
Assays:
[1] = Organic TFT on HMDS-modified substrate, vacuum-deposited semiconductor layer; conditions: for electrical properties of the organic TFT (n-type): drain voltage 50 to 100 V as in each example
[2] = Organic TFT on PS substrate, vacuum-deposited semiconductor layer; conditions: vacuum deposition; for electrical properties of the organic TFT (n-type): drain voltage 50 to 100 V as in each example
[3] = Organic TFT on PS substrate, spin-coated semiconductor layer; conditions: drain voltage 100 V; for electrical properties of the organic TFT (n-type): spin-coating; for field-effect mobility: spin-coating from 0.3 wt % 1,2-dichlorobenzene solution, heated 180° C. 35 minutes
[4] = Thin Film Formation Experiment using Coating Method; conditions: 0.2-μm filtered, dropped onto silicon wafer, solvent volatilized
[5] = drain voltage 50 V, left in the atmosphere 13 days
[6] = drain voltage 80 V, 28 days in total in the atmosphere
[7] = drain voltage 80 V, 56 days in total in the atmosphere
[8] = drain voltage 80 V, 124 days in total in the atmosphere
[9] = drain voltage 80 V, same TFT after 13 days in the atmosphere
[10] = drain voltage 100 V, left in the atmosphere 7 days

With `Cc1ccc(-c2ccc(-c3c4c(c(-c5ccc(-c6ccc(C)cc6)s5)c5nsnc35)N=S=N4)s2)cc1` [BBT-(12), reference compound] as the compound, how does the “electrical properties of the organic TFT (n-type)” value (“electrical properties” for short) [1] read?
Its value is “did not have the properties of n-type transistor”.

And the “electrical properties” value [2]?
Its value is “had the properties of n-type semiconductor”.

And the field-effect mobility ([2]; drain voltage 80 V, initial)?
The field-effect mobility was 4.9×10^−3 cm^2/Vs.

Which “electrical properties” value [3] does the source give for `CCCCCCCCCc1ccc(-c2ccc(-c3c4c(c(-c5ccc(-c6ccc(CCCCCCCCC)cc6)s5)c5nsnc35)N=S=N4)s2)cc1` [BBT-(14), reference compound] here?
The value was “did not have the properties of n-type transistor”.

Which results are given for `FC(F)(F)c1ccc(-c2ccc(-c3c4c(c(-c5ccc(-c6ccc(C(F)(F)F)cc6)s5)c5nsnc35)N=S=N4)s2)cc1` [BBT-(11), reference compound]?
formation of a thin film ([4]; 1,2-dichlorobenzene solution): not confirmed; formation of a thin film ([4]; mesitylene solution): not confirmed; field-effect mobility ([1]; drain voltage 50 V, initial): 4.0×10^−1 cm^2/Vs; field-effect mobility [1, 5]: 4.5×10^−1 cm^2/Vs; electrical properties of the organic TFT (n-type) [1]: had the properties of n-type semiconductor; field-effect mobility ([2]; drain voltage 50 V, initial): 4.0×10^−1 cm^2/Vs; field-effect mobility [2, 5]: 3.0×10^−1 cm^2/Vs; electrical properties of the organic TFT (n-type) [2]: had the properties of n-type semiconductor

What does the source list for `FC(F)(F)Oc1ccc(-c2ccc(-c3c4c(c(-c5ccc(-c6ccc(OC(F)(F)F)cc6)s5)c5nsnc35)N=S=N4)s2)cc1` [BBT-(1)]?
formation of a thin film ([4]; 1,2-dichlorobenzene solution): confirmed; formation of a thin film ([4]; mesitylene solution): confirmed; field-effect mobility ([1]; drain voltage 50 V, initial): 4.1×10^−1 cm^2/Vs; field-effect mobility [1, 5]: 8.0×10^−1 cm^2/Vs; electrical properties of the organic TFT (n-type) [1]: had the properties of n-type semiconductor; field-effect mobility [1, 6]: 1.1 cm^2/Vs; field-effect mobility [1, 7]: 9.7×10^−1 cm^2/Vs; field-effect mobility [1, 8]: 9.7×10^−1 cm^2/Vs; field-effect mobility [1, 9]: 1.0 cm^2/Vs; field-effect mobility ([2]; drain voltage 50 V, initial): 5.1×10^−1 cm^2/Vs; field-effect mobility [2, 5]: 8.2×10^−1 cm^2/Vs; electrical properties of the organic TFT (n-type) [2]: had the properties of n-type semiconductor; field-effect mobility [2, 6]: 1.6 cm^2/Vs; field-effect mobility [2, 7]: 1.6 cm^2/Vs; field-effect mobility [2, 8]: 1.5 cm^2/Vs; field-effect mobility [2, 9]: 1.6 cm^2/Vs

What does the source list for `CC(F)(F)Oc1ccc(-c2ccc(-c3c4c(c(-c5ccc(-c6ccc(OC(C)(F)F)cc6)s5)c5nsnc35)N=S=N4)s2)cc1` [BBT-(6)]?
electrical properties of the organic TFT (n-type) [1]: had the properties of n-type semiconductor; field-effect mobility ([1]; drain voltage 100 V, initial): 1.1 cm^2/Vs; field-effect mobility [1, 10]: 1.6 cm^2/Vs; electrical properties of the organic TFT (n-type) [2]: had the properties of n-type semiconductor; field-effect mobility ([2]; drain voltage 100 V, initial): 1.5 cm^2/Vs; field-effect mobility [2, 10]: 1.8 cm^2/Vs

For `COc1ccc(-c2ccc(-c3c4c(c(-c5ccc(-c6ccc(OC)cc6)s5)c5nsnc35)N=S=N4)s2)cc1` [BBT-(13), reference compound], which “electrical properties” value [1] is on record?
The value was “had the properties of n-type semiconductor”.

What about the field-effect mobility ([1]; drain voltage 80 V, initial) of the same compound?
The field-effect mobility was 2.0×10^−4 cm^2/Vs.

And the “electrical properties” value [2]?
The value was “had the properties of n-type semiconductor”.

What about the field-effect mobility ([2]; drain voltage 80 V, initial) of the same compound?
Its field-effect mobility is 2.0×10^−4 cm^2/Vs.

With `CCCCCCCCCCC(F)(F)c1ccc(-c2ccc(-c3c4c(c(-c5ccc(-c6ccc(C(F)(F)CCCCCCCCCC)cc6)s5)c5nsnc35)N=S=N4)s2)cc1` [BBT-(5)] as the compound, how does the field-effect mobility [3] read?
The field-effect mobility was 1.0×10^−1 cm^2/Vs.

What about the “electrical properties” value [3] of the same compound?
The value was “had the properties of n-type semiconductor”.

What does the source list for `FC(F)(F)Oc1cccc(-c2ccc(-c3c4c(c(-c5ccc(-c6cccc(OC(F)(F)F)c6)s5)c5nsnc35)N=S=N4)s2)c1` [BBT-(2)]?
electrical properties of the organic TFT (n-type) [1]: had the properties of n-type semiconductor; field-effect mobility ([1]; drain voltage 100 V, initial): 5.6×10^−1 cm^2/Vs; electrical properties of the organic TFT (n-type) [2]: had the properties of n-type semiconductor; field-effect mobility ([2]; drain voltage 100 V, initial): 5.3×10^−1 cm^2/Vs; field-effect mobility [3]: 2.6×10^−2 cm^2/Vs; electrical properties of the organic TFT (n-type) [3]: had the properties of n-type semiconductor
